According to patent publication US20100048482A1, “COMPOSITIONS AND METHODS FOR MODULATING EPSILON PROTEIN KINASE C-MEDIATED CYTOPROTECTION” (Board of Trustees of the Leland Stanford Junior University, priority 2008, published 2010):
“Also recorded” adds a separate entry of the source. At least one structure is not confirmed: it was looked up by name or label, or the drawing left a doubt.

What was measured:
εPKC [1] = biological target: T1, εPKC (Rattus norvegicus, UniProt P09216); assay: IR-induced mitochondrial translocation of εPKC (western blot of heart mitochondrial fraction); settings: GA 5 μm during reperfusion
T1 construct: Rat heart ventricles were removed from the cannula and homogenized; from tissue; host or cells: Wistar rat heart ventricle; mitochondrial, IMM or plasma membrane fractions
T1 sequence (P09216 1-737): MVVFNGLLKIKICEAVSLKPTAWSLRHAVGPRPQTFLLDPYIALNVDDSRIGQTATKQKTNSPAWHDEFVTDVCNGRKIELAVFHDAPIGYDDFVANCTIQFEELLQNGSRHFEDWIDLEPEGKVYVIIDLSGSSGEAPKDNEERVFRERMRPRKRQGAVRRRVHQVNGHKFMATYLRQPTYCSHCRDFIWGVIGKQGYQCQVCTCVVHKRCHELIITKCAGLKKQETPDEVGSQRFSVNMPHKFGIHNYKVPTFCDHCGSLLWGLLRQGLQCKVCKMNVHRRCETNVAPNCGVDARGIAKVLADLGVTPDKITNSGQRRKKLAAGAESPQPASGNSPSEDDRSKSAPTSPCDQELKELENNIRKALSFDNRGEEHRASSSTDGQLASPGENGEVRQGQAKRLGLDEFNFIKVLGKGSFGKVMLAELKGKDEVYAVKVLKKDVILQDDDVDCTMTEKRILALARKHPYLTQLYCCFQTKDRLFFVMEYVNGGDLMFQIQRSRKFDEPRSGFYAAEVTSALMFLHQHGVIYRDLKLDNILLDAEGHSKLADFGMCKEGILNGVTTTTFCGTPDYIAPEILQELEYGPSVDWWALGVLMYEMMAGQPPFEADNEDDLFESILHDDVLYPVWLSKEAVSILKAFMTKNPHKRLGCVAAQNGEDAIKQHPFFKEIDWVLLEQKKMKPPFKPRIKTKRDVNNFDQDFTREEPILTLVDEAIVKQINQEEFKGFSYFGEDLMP
Protocol: Rat hearts (Wistar, 250-300 g) were excised and cannulated on a Langendorff apparatus via the aorta. Briefly, retrograde perfusion was carried out with a constant coronary flow rate of 10 ml/min with oxygenated Krebs-Henseleit buffer containing 120 mM NaCl, 5,8 mM KCl, 25 mM NaHCO3, […], 1.2 mM MgSO4, 1.2 mM CaCl2, and 10 mM dextrose, pH 7.4 at 37° C. After a 20 min equilibration period, hearts were subjected to a 35 min of no-flow, global ischemia followed by 15 min of reperfusion. Control hearts were perfused with normoxic Krebs buffer and were time-matched for the experimental period. […]
Rat heart ventricles were removed from the cannula and homogenized in ice-cold mannitol-sucrose buffer (210 mM mannitol, 70 mM sucrose, 5 mM MOPS and 1 mM EDTA containing Sigma Protease Inhibitor 1 and Sigma Phosphatase Inhibitors 1 and 2, added per manufacturer's instructions) The resultant homogenate was filtered through gauze and centrifuged at 700 g for 5 minutes to pellet nuclei and cellular debris. […] Mitochondrial purity was also assessed by electron microscopic analysis. Protein concentration was determined by Bradford assay and 10 μg protein separated on a 12% SDS-PAGE gel and transferred to nitrocellulose. […]

εPKC [2] = assay: εPKC in inner mitochondrial membrane (IMM) fraction after IR (sub-fractionation, western blot); set-up: species or system rat; settings: GA treatment; n=3
εPKC [3] = assay: Immunogold electron microscopy of εPKC in isolated cardiac mitochondria; set-up: species or system rat; settings: 5 μm GA
Tom20 and εPKC = assay: Co-immunoprecipitation of Tom20 and εPKC after IR; set-up: species or system rat; settings: 5 μm GA; n=3
Tim23 and εPKC = assay: Co-immunoprecipitation of Tim23 and εPKC after IR; set-up: species or system rat; settings: hearts treated with GA; n=3
δPKC = assay: IR-induced mitochondrial translocation of δPKC (western blot of heart mitochondrial fraction); set-up: species or system rat; settings: GA 5 μm during reperfusion
[4] = system: Langendorff perfused rat heart; assay: Ex vivo Langendorff perfused rat heart ischemia-reperfusion, creatine phosphokinase (CPK) release; settings: normoxic hearts, 5 μm or 10 μm GA
Protocol: In accordance with a well-established ex vivo rat heart model for ischemia-reperfusion (see, e.g., U.S. Publication Nos. 20080167247, 20080153926, 20070299012, and 20060293237, which are herein incorporated by reference) and the method described in Example 1, hearts were removed from animals (rats) and subjected to a normoxia or an IR protocol, both depicted in FIG. 1A. The normoxia regimen comprised exposing hearts to 70 minutes of a normal oxygen state. The IR (ischemia/reperfusion) regimens comprised subjecting hearts to 20 minutes of normoxia, followed by 35 minutes of ischemia, followed by 15 minutes of reperfusion. […] The amount of necrotic cell death was then determined by measuring the release of creatine phosphokinase (CPK) into the buffer perfusate during reperfusion, which served as an indicator of ischemic damage.
Rat hearts (Wistar, 250-300 g) were excised and cannulated on a Langendorff apparatus via the aorta. […]
Necrotic damage was determined by measurement of the release of the cardiac myocyte cytosolic enzyme, creatine phosphokinase (CPK), into the effluent (FIG. 1B). […]
During reperfusion, ischemia-induced cell damage was determined by measuring the activity of creatine phosphokinase (CPK) in the coronary perfusate, carried out using a standard assay kit (Equal Diagnostics, CT, USA). […]

COC1=C2C[C@@H](C)C[C@H](OC)[C@H](O)[C@@H](C)/C=C(\C)[C@H](OC(N)=O)[C@@H](OC)/C=C\C=C(/C)C(=O)NC(=CC1=O)C2=O [GA, geldanamycin]
effect on IR-induced mitochondrial translocation of εPKC (εPKC [1]): significantly attenuated
effect on IR-increased εPKC association with the IMM fraction (εPKC [2]): abolished; also recorded: completely blocked
effect on IR-induced increase of εPKC immunogold labeling within cardiac mitochondria (εPKC [3]): prevented; also recorded: completely blocked
effect on IR-induced co-immunoprecipitation of Tom20 and εPKC (Tom20 and εPKC): abolished
effect on IR-induced association of PKC with Tim23 (Tim23 and εPKC): substantially decreased
effect on IR-induced mitochondrial translocation of δPKC (δPKC): no effect; also recorded: did not affect
effect on CPK release in the absence of IR injury [4]: did not result in any significant release
